Values from PubChem BioAssay AID1259254 (NCATS, 2017)
The deposit covers about 59,000 reagents; this is a part drawn at random. Of all reagents, about 1,550 (2.6%) got an active call. 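G2 share is only a proxy for re-replication; each gene was hit by three separate siRNAs, and active genes were retested.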 Raw values vary from plate to plate and are shown uncorrected. Unmarked entries are inactive. The numbers tell different reagents against one gene apart. The record does not give: the amount of reagent.

Screen: 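Gene knock-downs that lead to re-replication, shown by excess G2 DNA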 (primary screen)
Cell system: human HCT116 colorectal cancer cells
Reagents: single siRNA against human genes
Timing: 3 days
Detection: 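Nuclei stained with Hoechst and imaged; cell-cycle phase assigned by DNA content; G2 share scaled per plate, non-targeting siRNA 0%, GMNN siRNA 100%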
Reading the numbers: G2 robust z-score and G2 cells, % of GMNN control: higher = more G2 cells, more excess DNA replication; raw share of cells in G2: higher = larger share of cells with G2 DNA content
Hit rule: 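An siRNA counts as active if its G2 robust z-score lies at least 5 MADs above the screen median; here such calls match roughly 38% of GMNN control or more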

gene | reagent | G2 robust z-score | G2 cells, % of GMNN control | raw share of cells in G2 (%)
CYP4Z1 (cytochrome P450 family 4 subfamily Z member 1) | 1 | -0.152 | 1.9 | 6.86
CYP4Z1 (cytochrome P450 family 4 subfamily Z member 1) | 2 | 5.08 (active) | 38.7 | 18.9
CYP4Z1 (cytochrome P450 family 4 subfamily Z member 1) | 3 | 0.773 | 8.41 | 8.23
RPL12P8 (ribosomal protein L12 pseudogene 8) | 1 | -0.00473 | 2.93 | 4.75
RPL12P8 (ribosomal protein L12 pseudogene 8) | 2 | -0.658 | -1.66 | 2.68
RPL12P8 (ribosomal protein L12 pseudogene 8) | 3 | 0.0499 | 3.32 | 4.11
BID (BH3 interacting domain death agonist) | 1 | 1.33 | 12.3 | 8.92
BID (BH3 interacting domain death agonist) | 2 | 1.12 | 10.9 | 8.94
BID (BH3 interacting domain death agonist) | 3 | 0.057 | 3.37 | 5.25
ZNF677 (zinc finger protein 677) | 1 | -0.0228 | 2.81 | 4.06
ZNF677 (zinc finger protein 677) | 2 | -0.0539 | 2.59 | 4.06
ZNF677 (zinc finger protein 677) | 3 | 1.59 | 14.2 | 8.5
CD177 (CD177 molecule) | 1 | 0.612 | 7.27 | 7.21
CD177 (CD177 molecule) | 2 | 1.99 | 17 | 12.6
CD177 (CD177 molecule) | 3 | -0.72 | -2.1 | 2.36
WDR59 (WD repeat domain 59) | 1 | -0.133 | 2.03 | 5.29
WDR59 (WD repeat domain 59) | 2 | -0.563 | -0.997 | 3.87
WDR59 (WD repeat domain 59) | 3 | 0.847 | 8.93 | 4.82
XKRX (XK related X-linked) | 1 | 0.31 | 5.15 | 5.68
XKRX (XK related X-linked) | 2 | -0.96 | -3.79 | 2.01
XKRX (XK related X-linked) | 3 | -0.711 | -2.04 | 3.95
ADIG (adipogenin) | 1 | 0.16 | 4.09 | 5.2
ADIG (adipogenin) | 2 | 2.52 | 20.7 | 9.31
ADIG (adipogenin) | 3 | -0.938 | -3.63 | 1.8
MTO1 (mitochondrial tRNA translation optimization 1) | 1 | 3.19 | 25.4 | 17.7
MTO1 (mitochondrial tRNA translation optimization 1) | 2 | 1.23 | 11.6 | 8.04
MTO1 (mitochondrial tRNA translation optimization 1) | 3 | -0.205 | 1.53 | 4.49
C20orf173 (chromosome 20 open reading frame 173) | 1 | -0.475 | -0.376 | 3.94
C20orf173 (chromosome 20 open reading frame 173) | 2 | 0.815 | 8.7 | 6.16
C20orf173 (chromosome 20 open reading frame 173) | 3 | -0.779 | -2.51 | 2.26
